PubChem BioAssay AID1224831, NIAID, 2016

Purpose: 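Confirming genome-wide hits on LPS-triggered TNF-alpha induction with independent siRNA sequences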 (follow-up of hits)
Cell system: human THP-1 B5 monocytic leukaemia cells carrying a TNF promoter luciferase reporter, made macrophage-like with PMA
Reagents: single siRNA against human genes, 50 nM
Time to read-out: about 68 h of knock-down, then 4 h LPS
Conditions: LPS (Salmonella minnesota, TLR-grade) at 10 ng/ml for 4 h; PMA 5 ng/ml present during knock-down
Measurement: 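Firefly to renilla luciferase ratio of a TNF promoter reporter after 4 h LPS, scaled to plate median, turned into robust z-score, averaged over replicates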
Direction: TNF reporter z-score: higher = stronger LPS-induced TNF reporter signal; z-score, median over gene's siRNAs: higher = stronger TNF reporter signal across the gene's siRNAs
Hit rule: 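Two-sided call: reduced or raised TNF reporter signal counts as active once mean z reaches about -1 or below, or about 1.5 or above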
Meaning of the calls: active = changed TNF reporter (either direction); inactive = little change
This is a random part of about 3,500 deposited reagents. Over the whole deposit, 731 (21%) are marked active. 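Active means either lowered or raised reporter signal; the gene-median score did not drive the per-siRNA calls.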 Entries without a mark were called inactive. The numbers tell different reagents against one gene apart. No sequences are given here.

The opening 3 entries, to show the layout:
{"target": "COPB1 (coat protein complex I subunit beta 1)", "siRNA no.": 1, "TNF reporter z-score, replicate mean": -0.81, "z-score, median over gene's siRNAs": -0.56}
{"target": "COPB1 (coat protein complex I subunit beta 1)", "siRNA no.": 2, "TNF reporter z-score, replicate mean": "-1.06 (active)", "z-score, median over gene's siRNAs": -0.56}
{"target": "COPB1 (coat protein complex I subunit beta 1)", "siRNA no.": 3, "TNF reporter z-score, replicate mean": -0.31, "z-score, median over gene's siRNAs": -0.56}

The list itself, from the start:
{"target": "COPB1 (coat protein complex I subunit beta 1)", "siRNA no.": 1, "TNF reporter z-score, replicate mean": -0.81, "z-score, median over gene's siRNAs": -0.56}
{"target": "COPB1 (coat protein complex I subunit beta 1)", "siRNA no.": 2, "TNF reporter z-score, replicate mean": "-1.06 (active)", "z-score, median over gene's siRNAs": -0.56}
{"target": "COPB1 (coat protein complex I subunit beta 1)", "siRNA no.": 3, "TNF reporter z-score, replicate mean": -0.31, "z-score, median over gene's siRNAs": -0.56}
{"target": "COPB1 (coat protein complex I subunit beta 1)", "siRNA no.": 4, "TNF reporter z-score, replicate mean": 0.1, "z-score, median over gene's siRNAs": -0.56}
{"target": "COPB1 (coat protein complex I subunit beta 1)", "siRNA no.": 5, "TNF reporter z-score, replicate mean": -0.21, "z-score, median over gene's siRNAs": -0.56}
{"target": "COPB1 (coat protein complex I subunit beta 1)", "siRNA no.": 6, "TNF reporter z-score, replicate mean": "-1.88 (active)", "z-score, median over gene's siRNAs": -0.56}
{"target": "LIAT1 (ligand of ATE1)", "siRNA no.": 1, "TNF reporter z-score, replicate mean": 0.01, "z-score, median over gene's siRNAs": 0.405}
{"target": "LIAT1 (ligand of ATE1)", "siRNA no.": 2, "TNF reporter z-score, replicate mean": 0.69, "z-score, median over gene's siRNAs": 0.405}
{"target": "LIAT1 (ligand of ATE1)", "siRNA no.": 3, "TNF reporter z-score, replicate mean": 0.61, "z-score, median over gene's siRNAs": 0.405}
{"target": "LIAT1 (ligand of ATE1)", "siRNA no.": 4, "TNF reporter z-score, replicate mean": 0.2, "z-score, median over gene's siRNAs": 0.405}
{"target": "LIAT1 (ligand of ATE1)", "siRNA no.": 5, "TNF reporter z-score, replicate mean": -0.91, "z-score, median over gene's siRNAs": 0.405}
{"target": "LIAT1 (ligand of ATE1)", "siRNA no.": 6, "TNF reporter z-score, replicate mean": "1.95 (active)", "z-score, median over gene's siRNAs": 0.405}
{"target": "NCAPG2 (non-SMC condensin II complex subunit G2)", "siRNA no.": 1, "TNF reporter z-score, replicate mean": -0.27, "z-score, median over gene's siRNAs": 0.72}
{"target": "NCAPG2 (non-SMC condensin II complex subunit G2)", "siRNA no.": 2, "TNF reporter z-score, replicate mean": "1.77 (active)", "z-score, median over gene's siRNAs": 0.72}
{"target": "NCAPG2 (non-SMC condensin II complex subunit G2)", "siRNA no.": 3, "TNF reporter z-score, replicate mean": -0.08, "z-score, median over gene's siRNAs": 0.72}
{"target": "NCAPG2 (non-SMC condensin II complex subunit G2)", "siRNA no.": 4, "TNF reporter z-score, replicate mean": "1.52 (active)", "z-score, median over gene's siRNAs": 0.72}
{"target": "NCAPG2 (non-SMC condensin II complex subunit G2)", "siRNA no.": 5, "TNF reporter z-score, replicate mean": -0.18, "z-score, median over gene's siRNAs": 0.72}
{"target": "NCAPG2 (non-SMC condensin II complex subunit G2)", "siRNA no.": 6, "TNF reporter z-score, replicate mean": "4.16 (active)", "z-score, median over gene's siRNAs": 0.72}
{"target": "RPS6KA4 (ribosomal protein S6 kinase A4)", "siRNA no.": 1, "TNF reporter z-score, replicate mean": "-1.34 (active)", "z-score, median over gene's siRNAs": -0.55}
{"target": "RPS6KA4 (ribosomal protein S6 kinase A4)", "siRNA no.": 2, "TNF reporter z-score, replicate mean": 0.36, "z-score, median over gene's siRNAs": -0.55}
{"target": "RPS6KA4 (ribosomal protein S6 kinase A4)", "siRNA no.": 3, "TNF reporter z-score, replicate mean": "-1.41 (active)", "z-score, median over gene's siRNAs": -0.55}
{"target": "RPS6KA4 (ribosomal protein S6 kinase A4)", "siRNA no.": 4, "TNF reporter z-score, replicate mean": -0.38, "z-score, median over gene's siRNAs": -0.55}
{"target": "RPS6KA4 (ribosomal protein S6 kinase A4)", "siRNA no.": 5, "TNF reporter z-score, replicate mean": 0.28, "z-score, median over gene's siRNAs": -0.55}
{"target": "RPS6KA4 (ribosomal protein S6 kinase A4)", "siRNA no.": 6, "TNF reporter z-score, replicate mean": -0.72, "z-score, median over gene's siRNAs": -0.55}
{"target": "CHST3 (carbohydrate sulfotransferase 3)", "siRNA no.": 1, "TNF reporter z-score, replicate mean": -0.58, "z-score, median over gene's siRNAs": 0.245}
{"target": "CHST3 (carbohydrate sulfotransferase 3)", "siRNA no.": 2, "TNF reporter z-score, replicate mean": 0.86, "z-score, median over gene's siRNAs": 0.245}
{"target": "CHST3 (carbohydrate sulfotransferase 3)", "siRNA no.": 3, "TNF reporter z-score, replicate mean": "2 (active)", "z-score, median over gene's siRNAs": 0.245}
{"target": "CHST3 (carbohydrate sulfotransferase 3)", "siRNA no.": 4, "TNF reporter z-score, replicate mean": -0.46, "z-score, median over gene's siRNAs": 0.245}
{"target": "CHST3 (carbohydrate sulfotransferase 3)", "siRNA no.": 5, "TNF reporter z-score, replicate mean": -0.37, "z-score, median over gene's siRNAs": 0.245}
{"target": "CHST3 (carbohydrate sulfotransferase 3)", "siRNA no.": 6, "TNF reporter z-score, replicate mean": "2.21 (active)", "z-score, median over gene's siRNAs": 0.245}
{"target": "C1QTNF6 (C1q and TNF related 6)", "siRNA no.": 1, "TNF reporter z-score, replicate mean": -0.38, "z-score, median over gene's siRNAs": -0.27}
{"target": "C1QTNF6 (C1q and TNF related 6)", "siRNA no.": 2, "TNF reporter z-score, replicate mean": -0.16, "z-score, median over gene's siRNAs": -0.27}
{"target": "C1QTNF6 (C1q and TNF related 6)", "siRNA no.": 3, "TNF reporter z-score, replicate mean": "-1.28 (active)", "z-score, median over gene's siRNAs": -0.27}
{"target": "C1QTNF6 (C1q and TNF related 6)", "siRNA no.": 4, "TNF reporter z-score, replicate mean": -0.95, "z-score, median over gene's siRNAs": -0.27}
{"target": "C1QTNF6 (C1q and TNF related 6)", "siRNA no.": 5, "TNF reporter z-score, replicate mean": 0.56, "z-score, median over gene's siRNAs": -0.27}
{"target": "C1QTNF6 (C1q and TNF related 6)", "siRNA no.": 6, "TNF reporter z-score, replicate mean": 0.23, "z-score, median over gene's siRNAs": -0.27}
{"target": "HEXA (hexosaminidase subunit alpha)", "siRNA no.": 1, "TNF reporter z-score, replicate mean": "1.96 (active)", "z-score, median over gene's siRNAs": 0.805}
{"target": "HEXA (hexosaminidase subunit alpha)", "siRNA no.": 2, "TNF reporter z-score, replicate mean": -0.02, "z-score, median over gene's siRNAs": 0.805}
{"target": "HEXA (hexosaminidase subunit alpha)", "siRNA no.": 3, "TNF reporter z-score, replicate mean": 0.28, "z-score, median over gene's siRNAs": 0.805}
{"target": "HEXA (hexosaminidase subunit alpha)", "siRNA no.": 4, "TNF reporter z-score, replicate mean": 0.61, "z-score, median over gene's siRNAs": 0.805}
{"target": "HEXA (hexosaminidase subunit alpha)", "siRNA no.": 5, "TNF reporter z-score, replicate mean": 1, "z-score, median over gene's siRNAs": 0.805}
{"target": "HEXA (hexosaminidase subunit alpha)", "siRNA no.": 6, "TNF reporter z-score, replicate mean": 1.37, "z-score, median over gene's siRNAs": 0.805}
{"target": "CT47A1 (cancer/testis antigen family 47 member A1)", "siRNA no.": 1, "TNF reporter z-score, replicate mean": 0.53, "z-score, median over gene's siRNAs": 0.235}
{"target": "CT47A1 (cancer/testis antigen family 47 member A1)", "siRNA no.": 2, "TNF reporter z-score, replicate mean": 0.49, "z-score, median over gene's siRNAs": 0.235}
{"target": "CT47A1 (cancer/testis antigen family 47 member A1)", "siRNA no.": 3, "TNF reporter z-score, replicate mean": -0.07, "z-score, median over gene's siRNAs": 0.235}
{"target": "CT47A1 (cancer/testis antigen family 47 member A1)", "siRNA no.": 4, "TNF reporter z-score, replicate mean": "4.55 (active)", "z-score, median over gene's siRNAs": 0.235}
{"target": "CT47A1 (cancer/testis antigen family 47 member A1)", "siRNA no.": 5, "TNF reporter z-score, replicate mean": -0.02, "z-score, median over gene's siRNAs": 0.235}
{"target": "CT47A1 (cancer/testis antigen family 47 member A1)", "siRNA no.": 6, "TNF reporter z-score, replicate mean": -0.09, "z-score, median over gene's siRNAs": 0.235}
{"target": "VGLL1 (vestigial like family member 1)", "siRNA no.": 1, "TNF reporter z-score, replicate mean": -0.17, "z-score, median over gene's siRNAs": -0.465}
{"target": "VGLL1 (vestigial like family member 1)", "siRNA no.": 2, "TNF reporter z-score, replicate mean": -0.78, "z-score, median over gene's siRNAs": -0.465}
{"target": "VGLL1 (vestigial like family member 1)", "siRNA no.": 3, "TNF reporter z-score, replicate mean": -0.3, "z-score, median over gene's siRNAs": -0.465}
{"target": "VGLL1 (vestigial like family member 1)", "siRNA no.": 4, "TNF reporter z-score, replicate mean": -0.63, "z-score, median over gene's siRNAs": -0.465}
{"target": "VGLL1 (vestigial like family member 1)", "siRNA no.": 5, "TNF reporter z-score, replicate mean": -0.75, "z-score, median over gene's siRNAs": -0.465}
{"target": "VGLL1 (vestigial like family member 1)", "siRNA no.": 6, "TNF reporter z-score, replicate mean": 0.75, "z-score, median over gene's siRNAs": -0.465}
